These are yes or no findings as the source states them, for the method shown. In cells and extracts the contact can be indirect.
Target: T1, Mic60/Mitofilin (human) (UniProt Q16891)
T1 sequence: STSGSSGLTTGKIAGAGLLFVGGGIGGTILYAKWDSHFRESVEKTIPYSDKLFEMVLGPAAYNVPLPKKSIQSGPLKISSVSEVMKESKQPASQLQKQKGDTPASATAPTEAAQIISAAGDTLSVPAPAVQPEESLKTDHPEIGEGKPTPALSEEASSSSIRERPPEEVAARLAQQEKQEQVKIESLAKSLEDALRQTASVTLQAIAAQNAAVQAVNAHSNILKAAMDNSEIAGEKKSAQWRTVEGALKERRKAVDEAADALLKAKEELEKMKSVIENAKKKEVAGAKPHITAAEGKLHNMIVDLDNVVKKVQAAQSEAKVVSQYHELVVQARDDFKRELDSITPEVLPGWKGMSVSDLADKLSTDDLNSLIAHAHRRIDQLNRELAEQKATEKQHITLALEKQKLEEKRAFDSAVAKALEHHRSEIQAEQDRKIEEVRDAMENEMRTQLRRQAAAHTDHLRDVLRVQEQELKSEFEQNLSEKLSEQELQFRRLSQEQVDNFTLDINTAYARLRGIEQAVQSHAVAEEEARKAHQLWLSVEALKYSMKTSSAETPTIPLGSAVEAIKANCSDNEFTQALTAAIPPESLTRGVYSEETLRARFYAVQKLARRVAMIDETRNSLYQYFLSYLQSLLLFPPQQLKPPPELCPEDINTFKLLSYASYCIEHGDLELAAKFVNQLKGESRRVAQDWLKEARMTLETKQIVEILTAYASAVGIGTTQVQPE
Assay: co-IP; Mic60/Mitofilin targeted with specific antibodies; precipitates analysed by SDS-PAGE and western blot with Mic60/Mitofilin, Mic23/ApoO and Tim44 antibodies; PBS as negative control

With “Tim44 (translocase of the inner mitochondrial membrane 44) (human)” the binding was “no binding”.

— publication PMC4363703
